Laboratory results: patent US20230293511A1, “Ophthalmic Compositions and Uses Thereof” (priority 2022, published 2023)
Where two headings read alike, the source gives them in different places. For at least one compound, name, drawing or mass did not settle the structure.

Test system: patients with Fuchs Corneal Dystrophy (corneal edema)
Format: in vivo, human
Conditions: for CCT (corneal thickness) change from baseline: weeks 2, 4 and 8; for patient-reported outcomes with V-FUCHS Questionnaire: all timepoints
Text: FIG. 1 is a graphic representation of the study described in Example 6.
A Randomized, Open-Label, Parallel-Group Study of Two Dosing Regimens of Netarsudil in Patients with Fuchs Corneal Dystrophy
Fuchs Corneal Dystrophy (FCD) is a slowly progressive corneal disease, and is the most common indication for corneal transplants worldwide. A typical patient presents with blurred vision, glare, and a hazy cornea from corneal edema. The only definitive treatment option to restore vision is surgery. There is a large unmet need for pharmacologic alternatives to surgery
Purpose of this study: evaluate the therapeutic potential of two dosing regimens of netarsudil, a Rho kinase inhibitor, to reduce corneal edema and improve visual acuity in patients with FCD. […] Complete resolution of edema in 12.5% of patients at Week 4 (BID+QD) (FIG. 2). • d. 25% of patients gained letters from baseline in BCVA at Week 4 (BID+QD) (FIG. 4). • e. […] Improvements in validated patient reported outcome questionnaire shown at all timepoints with netarsudil QD dosing (FIG. 5). • g. […] Most common ocular TEAE was hyperemia accounting for 3/9 and 6/17 total ocular TEAE in the QD and BID groups, respectively. • i. Reticular edema developed in 1 patient in BID group, which resolved with treatment discontinuation.

## Cc1ccc(C(=O)OCc2ccc([C@@H](CN)C(=O)Nc3ccc4cnccc4c3)cc2)c(C)c1 [netarsudil, Netarsudil]
FCD patients
  time course of improvements in corneal edema and vision: as early as Week 2 and continued at Week 8
Corneal edema and vision, FCD patients
  efficacy of QD dosing compared with BID dosing: as effective as BID dosing
Netarsudil BID, FCD patients
  CCT (corneal thickness) change from baseline: significantly improved
Netarsudil BID, FCD patients, listed as Netarsudil
  CCT (corneal thickness) change from baseline: Significant improvements
Netarsudil QD
  patient-reported outcomes with V-FUCHS Questionnaire: improvements
Netarsudil QD, listed as Netarsudil
  patient-reported outcomes with V-FUCHS Questionnaire: Improvements
Netarsudil QD, FCD patients
  CCT (corneal thickness) change from baseline: significantly improved
Netarsudil QD, FCD patients, listed as Netarsudil
  CCT (corneal thickness) change from baseline: Significant improvements
Patients with FCD, QD and BID
  corneal edema: significantly reduced
  vision: improved
